# In the supplement of paper PMC3334620:
# The full ranking holds about 33,000 sequences; the median of “E-score (-0.5 to 0.5)” is about -0.015, and the highest 2% start at about 0.3. This is one part of the list.
# Biological target: T1, Abf1 (UniProt P14164)
# T1 sequence: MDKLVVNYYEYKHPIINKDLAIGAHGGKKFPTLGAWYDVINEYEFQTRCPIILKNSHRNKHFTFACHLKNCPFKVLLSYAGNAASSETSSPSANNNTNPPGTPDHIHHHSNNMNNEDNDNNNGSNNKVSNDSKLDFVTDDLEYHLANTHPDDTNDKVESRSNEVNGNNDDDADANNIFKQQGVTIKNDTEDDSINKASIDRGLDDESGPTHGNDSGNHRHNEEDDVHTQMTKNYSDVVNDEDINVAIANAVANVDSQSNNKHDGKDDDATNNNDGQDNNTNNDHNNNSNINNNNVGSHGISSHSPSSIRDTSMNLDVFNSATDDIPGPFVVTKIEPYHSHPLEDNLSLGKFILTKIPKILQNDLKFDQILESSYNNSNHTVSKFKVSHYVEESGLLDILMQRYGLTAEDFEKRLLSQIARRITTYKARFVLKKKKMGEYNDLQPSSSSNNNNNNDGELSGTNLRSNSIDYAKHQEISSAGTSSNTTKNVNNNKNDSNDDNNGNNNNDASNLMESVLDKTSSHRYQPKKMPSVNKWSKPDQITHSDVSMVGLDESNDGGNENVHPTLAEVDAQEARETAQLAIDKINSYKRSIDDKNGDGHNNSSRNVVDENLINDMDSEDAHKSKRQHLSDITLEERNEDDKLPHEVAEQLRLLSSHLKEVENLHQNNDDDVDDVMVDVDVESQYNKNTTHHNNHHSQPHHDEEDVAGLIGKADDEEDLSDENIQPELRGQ
# Assay: PBM E-score (8-mer binding enrichment) (E-score (-0.5 to 0.5)); higher = stronger / more preferred TF binding
# Settings: protein concentration: 200 nM; construct: GST-full length
# Method in brief: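 Each ungapped eight-base word and its reverse complement, pooled, received an E-score from the Universal PBM Analysis Suite. Underlying scans, normalised with masliner, recorded fluorescent anti-GST bound to GST-tagged yeast transcription factors. These were applied at about 100-200 nM to universal all-10-mer Agilent arrays double-stranded by primer extension.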
row,Sequence,PBM E-score
1,CTTCCGTA,0.238
2,ACGTAATC,-0.0476
3,ACTATCGG,-0.0681
4,CAATGTCA,0.235
5,CGGTGCCC,-0.156
6,AATTGAGT,0.00961
7,AAAAAAGT,0.0534
8,CTGTAACA,-0.187
9,AAGGTCAT,0.164
10,ACTCTGTG,-0.0599
11,CCACATCA,0.115
12,ATGGATTC,0.0308
13,AACCCCGG,0.00753
14,ACCCCTGA,-0.179
15,ACGACGGC,0.164
16,CACTACGG,0.135
17,ACATATAT,0.0645
18,TCCGATCA,-0.0305
19,GTCAGTGA,0.19
20,ATTGGACG,0.074
21,GTATATAA,0.286
22,AGAGAAAA,0.144
23,ACTTTGCC,-0.0733
24,AGTGACGG,0.1
25,CCCTTTGC,0.0184

row,Sequence,PBM E-score
1,ATTTCGGC,-0.124
2,AGCCAAGA,-0.079
3,CAGCTGCC,-0.242
4,AGTGTTTA,-0.00423
5,AGATAAAG,0.113
6,ACAATCCA,0.127
7,AACTTAGC,0.0723
8,ATGACTCG,0.137
9,ACACGAGC,0.148
10,GGATTGCC,-0.0515
11,ATTTAAAT,0.189
12,AATCGGGC,0.0396
13,ACCTTAAT,-0.0549
14,CAATTCAA,0.00215
15,CAAGCATG,0.204
16,CTAACGGC,0.181
17,CATTCGCG,0.0589
18,CGACGGGC,0.22
19,TAAGCATA,-0.0176
20,ATGAAGTC,0.0994
21,AATCCACG,0.164
22,GTAGGATA,0.104
23,ACGAGAAG,0.0925
24,CTAGTACC,-0.102
25,CGCCCGAC,-0.111

row,Sequence,PBM E-score
1,AAATGGTT,0.0299
2,AATATAAC,0.124
3,ATGGGCCA,-0.231
4,CAGTCCAA,-0.177
5,ACACGAGA,-0.0988
6,TACTACAA,0.134
7,AAGTGTTA,-0.161
8,ACCGAAAG,0.0179
9,AGACAGCA,0.0352
10,CATACTCG,-0.145
11,AATAAACC,-0.0327
12,TCGCCAGA,0.15
13,ATTAACGC,0.123
14,ACATAAAC,0.167
15,AGCGGACA,-0.115
16,TCACCGAA,0.0422
17,AATTAGCA,0.158
18,CTACTCGA,0.0303
19,AAAAAAGA,-0.00419
20,ACGTGATA,0.318
21,AGAGCACC,-0.24
22,ATTAACTC,0.168
23,TGGCGCAA,-0.257
24,GCCGTGAA,0.277
25,AGTCGACG,0.236

row,Sequence,PBM E-score
1,AGGGTAGC,-0.185
2,AGATTAAG,0.0353
3,GGGTGAAA,0.0485
4,GGTGTCTA,-0.0372
5,GAGCGTCA,-0.0359
6,CGGTATGA,0.161
7,GAGCGAAC,-0.281
8,AGCCGAGC,-0.222
9,CATGCGTC,-0.0848
10,ATATCTCG,0.125
11,GTGTGCTA,-0.01
12,ATAACACC,0.0472
13,AAGAGTCA,-0.143
14,AATGAAAG,-0.0366
15,AGCGAGTG,-0.0199
16,TCAATACA,0.0233
17,GTTGACCA,0.105
18,AAGTTACT,0.0476
19,CCTAGAGG,-0.0425
20,ACTATACC,0.00419
21,CGTACGGA,0.355
22,ATAAGCAG,0.132
23,ACCCGGGC,-0.288
24,CGCGCGCA,0.118
25,ATCCTCGC,-0.251

row,Sequence,PBM E-score
1,GCACGTCC,0.0188
2,CACCCCGA,-0.158
3,TGTTCTAA,0.0159
4,AACGGGAC,-0.0167
5,TGAGAGAA,0.0455
6,AGACGGTC,0.14
7,CACGTACG,0.277
8,GTCACAGA,0.0859
9,ATAGCGAA,0.139
10,CCCTCTAA,-0.23
11,CAACTCGC,0.0334
12,CTTGTCCA,-0.0224
13,CAACAATC,0.024
14,ACCTAGAT,-0.0984
15,CGTCCGTA,0.119
16,CCAATACC,-0.104
17,GCACCGGA,-0.171
18,CGAGTGGA,-0.149
19,CTGTTTTA,-0.0343
20,CAACATGC,-0.0402
21,AAAAGGTC,-0.0335
22,TAGGCCGA,-0.106
23,CTTATTTA,-0.0114
24,AGATTCAC,-0.251
25,AACCAGCC,-0.0913

row,Sequence,PBM E-score
1,CGGCGCGC,-0.0194
2,ATCCAAAC,0.0146
3,AGTTCCAC,-0.0322
4,TATATGGA,0.0276
5,TACGCTAA,0.0245
6,ACGTGTTC,0.044
7,CATCAGCG,-0.00857
8,CAAAAAAA,0.168
9,CAATAACG,0.0921
10,CCGTAGAC,0.0491
11,ACCTTCCT,-0.262
12,AACCCCTC,-0.292
13,CGCTCGGA,-0.195
14,CAGTTATA,-0.00778
15,TAGTACCA,-0.0108
16,TCTGTGAA,0.0637
17,CCCGATAA,-0.0561
18,CCAAGTGG,-0.143
19,GTATTGCA,-0.143
20,TATATTCA,0.16
21,CAGGAACA,-0.122
22,CTAGACAA,-0.128
23,CTAGTCGC,-0.0471
24,AGGGGGGC,-0.324
25,GACGTGAA,0.175

row,Sequence,PBM E-score
1,AACTAGCC,-0.178
2,GAAGCGGC,0.0906
3,ACAGCAAG,-0.126
4,ACGGCCCC,-0.145
5,AATTTCAG,0.0263
6,AATAACCG,0.00299
7,ATTTACAA,0.0727
8,TCCGTCAA,0.246
9,ATAACTTG,0.0937
10,AAAACTTA,0.0148
11,AGCCAAGG,-0.205
12,CCTTGCCC,-0.27
13,TGTTGTAA,-0.0104
14,AGACTAGA,-0.26
15,TACATATA,0.281
16,TCACAGGA,0.00852
17,CCATCTTC,0.169
18,GCGGAACC,0.0321
19,ACGCTACA,-0.102
20,GGTCCGAA,-0.00922
21,ACACCAAC,-0.204
22,AATCCTTC,-0.0571

# Reformatted as tab-separated lines: part of the list above.
row	Sequence	PBM E-score
9	ATAACTTG	0.0937
10	AAAACTTA	0.0148
11	AGCCAAGG	-0.205
12	CCTTGCCC	-0.27
13	TGTTGTAA	-0.0104
14	AGACTAGA	-0.26
15	TACATATA	0.281
